{
  "source": "patent US20250066502A1",
  "about": "“MEDICAMENT FOR TREATMENT AND/OR PREVENTION OF CANCER” (TORAY INDUSTRIES, INC., priority 2021, published 2025)",
  "key": {"[1]": {"test_system": "human bile duct cancer cell line KKU-100", "assay": "THP-1-mediated antibody-dependent phagocytic activity against KKU-100", "type": "cell-based", "conditions": "romidepsin 2 nM with anti-CAPRIN-1 antibody, N=3, p<0.01", "experimental": "(§1) Specifically, in each combination test group (a romidepsin combination test group and a panobinostat combination test group), the indicated drug used in combination was applied to human cancer cells, and then the cancer cells were cocultured with human monocytic cells (THP-1) in the presence of the anti-CAPRIN-1 antibody, and the antibody-mediated phagocytic activity against the cancer cells by THP-1 was evaluated. […] As a control, a test group without a drug used in combination was established. […] Further, dead cells were stained with propidium iodide (PI) (final concentration: 0.1 μg/mL), followed by the measurement of fluorescence from the cells by flow cytometry. PI-positive dead cells were excluded from analysis. The human monocytic cells THP-1 recognize an antibody bound onto cancer cells and phagocytize the cancer cells. At that time, if the cancer cells have been stained with calcein-AM, the monocytic cells ingesting the cancer cells by phagocytosis also become positive to calcein-AM. Thus, the phagocytic activity in this evaluation system was calculated as the ratio (%) of APC-positive/calcein-AM-positive cells to the whole calcein-AM-positive population."}, "[2]": {"test_system": "human uterus cancer cell line MFE-296", "assay": "THP-1-mediated antibody-dependent phagocytic activity against MFE-296", "type": "cell-based", "conditions": "romidepsin 20 nM with anti-CAPRIN-1 antibody, N=3, p<0.001", "experimental": "as §1"}},
  "note": "For at least one compound, name, drawing or mass did not settle the structure.",
  "data": [
    {"smiles": "C/C=C1\\NC(=O)[C@H]2CSSCC/C=C/[C@H](CC(=O)N[C@H](C(C)C)C(=O)N2)OC(=O)[C@H](C(C)C)NC1=O", "note": "[romidepsin, (1S,4S,10S,16E,21R)-7-[(2Z)-ethylidene]-4,21-bis(1-methylethyl)-2-oxa-12,13-dithia-5,8,20,23-tetraazabicyclo[8.7.6]tricos-16-ene-3,6,9,19,22-pentone]", "values": [
      {"measurement": "phagocytic activity of drug combination test group vs test group without a drug (Student's t test)", "setting": "[1]", "result": "significantly higher"},
      {"measurement": "phagocytic activity of drug combination test group vs test group without a drug (Student's t test)", "setting": "[2]", "result": "significantly higher"}
    ]}
  ]
}
